These are yes or no findings as the source states them, for the method shown. In cells and extracts the contact can be indirect. A yes stands for co-enrichment or nearness to the bait. Other partners may have been found.
Assays:
Kek6-Flag (Drosophila) [1] = test: affinity purification with mass spectrometry; lysate of S2 cells transfected with pAct5C-Kek6-3xFlag on anti-Flag magnetic beads overnight at 4°C; eluted proteins on SDS-PAGE, in-gel trypsin, LC-MS/MS; mock-transfected cells as control
Kek6-Flag (Drosophila) [2] = test: affinity purification with mass spectrometry; Kek6-3xFlag from transfected S2 cells held on anti-Flag magnetic beads, re-incubated with adult fly (OregonR) head lysate in NP-40 buffer overnight at 4°C; SDS-PAGE, in-gel trypsin, LC-MS/MS; mock control

B1: VAP33A (endogenous, S2 cells and adult fly heads) (protein, UniProt Q9W4N8 1-269)
chain: MSKSLFDLPLTIEPEHELRFVGPFTRPVVTIMTLRNNSALPLVFKIKTTAPKRYCVRPNIGKIIPFRSTQVEICLQPFVYDQQEKNKHKFMVQSVLAPMDADLSDLNKLWKDLEPEQLMDAKLKCVFEMPTAEANAENTSGGGAVGGGTGAAGGGSAGANTSSASAEALESKPKLSSEDKFKPSNLLETSESLDLLSGEIKALRECNIELRRENLHLKDQITRFRSSPAVKQVNEPYAPVLAEKQIPVFYIAVAIAAAIVSLLLGKFFL
B1 was tested, and the binding (Kek6-Flag (Drosophila) [1]) was “binds” and the binding (Kek6-Flag (Drosophila) [2]) was “binds”.
